Laboratory results published in the supplement of paper PMC10849652.
The list shows a part of the results.

By UniProt entry, the sequences of proteins in these tests, tags left out. Where a name states a change or a piece, a line headed by the entry shows the natural chain unless it says otherwise.
UniProt Q99615: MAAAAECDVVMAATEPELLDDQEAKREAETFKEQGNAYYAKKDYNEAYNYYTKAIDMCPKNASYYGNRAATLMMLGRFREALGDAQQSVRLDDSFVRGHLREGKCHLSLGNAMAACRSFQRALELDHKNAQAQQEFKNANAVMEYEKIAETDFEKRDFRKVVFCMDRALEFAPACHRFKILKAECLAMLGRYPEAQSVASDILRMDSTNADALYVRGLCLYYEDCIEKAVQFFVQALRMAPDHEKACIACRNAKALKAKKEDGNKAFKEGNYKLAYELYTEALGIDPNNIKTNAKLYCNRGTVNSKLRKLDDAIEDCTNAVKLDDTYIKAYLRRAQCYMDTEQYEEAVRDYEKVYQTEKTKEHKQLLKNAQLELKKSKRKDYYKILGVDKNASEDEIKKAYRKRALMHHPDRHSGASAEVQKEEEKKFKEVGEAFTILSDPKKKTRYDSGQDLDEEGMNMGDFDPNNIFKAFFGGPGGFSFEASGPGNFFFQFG
UniProt O95620: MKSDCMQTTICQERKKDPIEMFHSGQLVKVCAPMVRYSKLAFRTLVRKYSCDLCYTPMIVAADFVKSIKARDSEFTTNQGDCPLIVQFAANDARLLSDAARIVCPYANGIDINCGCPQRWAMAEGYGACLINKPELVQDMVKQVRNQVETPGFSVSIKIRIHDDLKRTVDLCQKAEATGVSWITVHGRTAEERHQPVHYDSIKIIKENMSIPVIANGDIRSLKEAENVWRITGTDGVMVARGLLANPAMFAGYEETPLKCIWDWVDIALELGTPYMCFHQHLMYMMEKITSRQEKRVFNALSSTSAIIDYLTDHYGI
UniProt Q8TEA8: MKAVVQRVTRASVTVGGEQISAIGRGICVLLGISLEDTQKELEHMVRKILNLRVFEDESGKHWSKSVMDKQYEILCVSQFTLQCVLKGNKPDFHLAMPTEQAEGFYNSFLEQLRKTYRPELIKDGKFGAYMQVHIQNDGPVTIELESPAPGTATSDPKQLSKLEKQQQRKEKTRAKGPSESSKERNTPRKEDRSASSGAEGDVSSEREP
UniProt O75165, whole entry, looked up: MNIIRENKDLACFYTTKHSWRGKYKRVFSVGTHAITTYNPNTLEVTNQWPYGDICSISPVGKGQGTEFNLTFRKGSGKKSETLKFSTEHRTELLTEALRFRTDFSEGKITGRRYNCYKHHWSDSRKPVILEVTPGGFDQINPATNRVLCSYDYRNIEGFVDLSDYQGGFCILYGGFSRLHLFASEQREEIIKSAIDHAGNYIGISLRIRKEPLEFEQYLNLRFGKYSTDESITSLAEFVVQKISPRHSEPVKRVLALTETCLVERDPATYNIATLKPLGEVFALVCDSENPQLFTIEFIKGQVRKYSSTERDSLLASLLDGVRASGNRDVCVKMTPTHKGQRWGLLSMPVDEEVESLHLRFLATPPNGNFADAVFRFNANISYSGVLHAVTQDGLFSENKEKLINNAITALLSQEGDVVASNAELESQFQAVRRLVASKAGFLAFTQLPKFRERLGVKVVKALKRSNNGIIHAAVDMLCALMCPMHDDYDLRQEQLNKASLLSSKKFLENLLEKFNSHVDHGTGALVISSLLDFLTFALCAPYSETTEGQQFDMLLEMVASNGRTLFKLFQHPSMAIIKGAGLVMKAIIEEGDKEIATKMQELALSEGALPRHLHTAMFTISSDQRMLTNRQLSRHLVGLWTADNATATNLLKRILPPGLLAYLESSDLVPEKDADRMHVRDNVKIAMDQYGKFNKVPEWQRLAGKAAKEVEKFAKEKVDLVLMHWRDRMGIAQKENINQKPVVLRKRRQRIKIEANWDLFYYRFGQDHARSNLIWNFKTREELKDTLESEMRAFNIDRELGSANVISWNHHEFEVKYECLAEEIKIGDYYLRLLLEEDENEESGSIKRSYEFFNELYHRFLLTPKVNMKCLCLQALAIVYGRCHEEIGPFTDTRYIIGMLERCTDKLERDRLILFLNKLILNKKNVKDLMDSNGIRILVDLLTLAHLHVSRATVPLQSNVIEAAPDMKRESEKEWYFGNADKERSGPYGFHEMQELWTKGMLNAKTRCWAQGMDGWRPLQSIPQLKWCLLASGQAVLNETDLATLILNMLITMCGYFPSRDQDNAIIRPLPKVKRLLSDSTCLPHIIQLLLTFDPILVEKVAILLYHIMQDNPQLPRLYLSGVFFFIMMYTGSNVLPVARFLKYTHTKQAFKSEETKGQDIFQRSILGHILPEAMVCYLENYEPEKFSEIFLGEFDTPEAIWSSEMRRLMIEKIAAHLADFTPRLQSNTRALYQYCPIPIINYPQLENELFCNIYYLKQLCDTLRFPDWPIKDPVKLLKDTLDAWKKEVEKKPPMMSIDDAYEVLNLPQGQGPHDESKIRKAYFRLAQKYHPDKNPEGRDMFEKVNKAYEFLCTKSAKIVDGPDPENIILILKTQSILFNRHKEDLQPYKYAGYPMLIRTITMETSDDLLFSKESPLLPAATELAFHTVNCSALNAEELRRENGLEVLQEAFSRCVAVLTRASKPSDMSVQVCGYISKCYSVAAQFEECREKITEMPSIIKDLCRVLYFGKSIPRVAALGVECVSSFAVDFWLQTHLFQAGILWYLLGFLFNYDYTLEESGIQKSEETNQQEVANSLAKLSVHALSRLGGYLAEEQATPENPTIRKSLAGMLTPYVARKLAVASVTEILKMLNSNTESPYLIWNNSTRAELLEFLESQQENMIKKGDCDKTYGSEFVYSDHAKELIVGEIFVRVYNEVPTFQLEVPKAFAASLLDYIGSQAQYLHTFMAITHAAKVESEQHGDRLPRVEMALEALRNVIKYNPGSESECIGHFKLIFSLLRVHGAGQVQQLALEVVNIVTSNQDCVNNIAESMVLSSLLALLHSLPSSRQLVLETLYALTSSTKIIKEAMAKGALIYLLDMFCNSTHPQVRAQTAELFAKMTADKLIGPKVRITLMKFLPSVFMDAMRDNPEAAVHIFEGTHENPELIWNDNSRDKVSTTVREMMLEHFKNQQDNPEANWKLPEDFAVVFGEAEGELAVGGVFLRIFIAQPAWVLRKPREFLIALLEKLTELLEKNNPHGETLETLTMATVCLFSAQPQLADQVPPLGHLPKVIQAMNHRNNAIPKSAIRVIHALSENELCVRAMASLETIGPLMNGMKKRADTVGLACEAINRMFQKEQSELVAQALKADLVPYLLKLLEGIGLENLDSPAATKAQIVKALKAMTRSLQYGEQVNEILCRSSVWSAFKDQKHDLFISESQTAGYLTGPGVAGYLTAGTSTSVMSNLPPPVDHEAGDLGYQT
UniProt Q86YN1: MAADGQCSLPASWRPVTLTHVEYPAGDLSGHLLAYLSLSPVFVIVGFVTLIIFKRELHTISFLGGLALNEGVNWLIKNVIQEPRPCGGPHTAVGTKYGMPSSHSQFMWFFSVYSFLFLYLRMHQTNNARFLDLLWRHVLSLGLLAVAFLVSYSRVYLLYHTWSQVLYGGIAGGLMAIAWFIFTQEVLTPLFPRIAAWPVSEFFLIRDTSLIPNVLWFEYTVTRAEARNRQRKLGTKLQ
UniProt Q96DC8: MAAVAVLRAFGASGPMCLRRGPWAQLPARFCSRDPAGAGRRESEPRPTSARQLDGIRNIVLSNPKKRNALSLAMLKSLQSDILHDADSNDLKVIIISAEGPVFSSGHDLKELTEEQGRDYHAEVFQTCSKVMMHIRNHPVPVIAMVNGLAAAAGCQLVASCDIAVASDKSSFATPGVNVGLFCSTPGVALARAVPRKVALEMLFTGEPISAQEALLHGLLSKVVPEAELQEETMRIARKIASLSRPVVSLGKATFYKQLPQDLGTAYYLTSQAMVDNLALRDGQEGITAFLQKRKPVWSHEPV
UniProt Q9Y2G8: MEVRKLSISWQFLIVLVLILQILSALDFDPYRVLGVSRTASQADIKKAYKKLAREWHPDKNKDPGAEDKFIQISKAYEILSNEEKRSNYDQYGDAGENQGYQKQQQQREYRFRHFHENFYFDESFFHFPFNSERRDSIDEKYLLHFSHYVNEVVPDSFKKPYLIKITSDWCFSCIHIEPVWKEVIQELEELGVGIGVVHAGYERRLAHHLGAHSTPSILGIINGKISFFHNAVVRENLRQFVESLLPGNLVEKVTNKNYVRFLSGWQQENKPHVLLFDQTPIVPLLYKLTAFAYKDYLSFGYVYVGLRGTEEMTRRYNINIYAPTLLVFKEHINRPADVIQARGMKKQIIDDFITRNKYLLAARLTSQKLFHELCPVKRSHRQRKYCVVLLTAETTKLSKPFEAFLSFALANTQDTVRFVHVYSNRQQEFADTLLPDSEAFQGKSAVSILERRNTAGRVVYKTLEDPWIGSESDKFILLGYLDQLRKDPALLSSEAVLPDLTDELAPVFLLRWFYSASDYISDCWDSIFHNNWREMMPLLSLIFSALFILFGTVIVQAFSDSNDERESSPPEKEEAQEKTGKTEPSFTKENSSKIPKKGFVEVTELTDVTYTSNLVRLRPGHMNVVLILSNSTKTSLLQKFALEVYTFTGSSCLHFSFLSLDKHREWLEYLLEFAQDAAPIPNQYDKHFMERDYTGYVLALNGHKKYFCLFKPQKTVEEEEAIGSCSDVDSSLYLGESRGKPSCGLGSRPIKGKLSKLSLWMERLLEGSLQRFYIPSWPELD
UniProt Q14126: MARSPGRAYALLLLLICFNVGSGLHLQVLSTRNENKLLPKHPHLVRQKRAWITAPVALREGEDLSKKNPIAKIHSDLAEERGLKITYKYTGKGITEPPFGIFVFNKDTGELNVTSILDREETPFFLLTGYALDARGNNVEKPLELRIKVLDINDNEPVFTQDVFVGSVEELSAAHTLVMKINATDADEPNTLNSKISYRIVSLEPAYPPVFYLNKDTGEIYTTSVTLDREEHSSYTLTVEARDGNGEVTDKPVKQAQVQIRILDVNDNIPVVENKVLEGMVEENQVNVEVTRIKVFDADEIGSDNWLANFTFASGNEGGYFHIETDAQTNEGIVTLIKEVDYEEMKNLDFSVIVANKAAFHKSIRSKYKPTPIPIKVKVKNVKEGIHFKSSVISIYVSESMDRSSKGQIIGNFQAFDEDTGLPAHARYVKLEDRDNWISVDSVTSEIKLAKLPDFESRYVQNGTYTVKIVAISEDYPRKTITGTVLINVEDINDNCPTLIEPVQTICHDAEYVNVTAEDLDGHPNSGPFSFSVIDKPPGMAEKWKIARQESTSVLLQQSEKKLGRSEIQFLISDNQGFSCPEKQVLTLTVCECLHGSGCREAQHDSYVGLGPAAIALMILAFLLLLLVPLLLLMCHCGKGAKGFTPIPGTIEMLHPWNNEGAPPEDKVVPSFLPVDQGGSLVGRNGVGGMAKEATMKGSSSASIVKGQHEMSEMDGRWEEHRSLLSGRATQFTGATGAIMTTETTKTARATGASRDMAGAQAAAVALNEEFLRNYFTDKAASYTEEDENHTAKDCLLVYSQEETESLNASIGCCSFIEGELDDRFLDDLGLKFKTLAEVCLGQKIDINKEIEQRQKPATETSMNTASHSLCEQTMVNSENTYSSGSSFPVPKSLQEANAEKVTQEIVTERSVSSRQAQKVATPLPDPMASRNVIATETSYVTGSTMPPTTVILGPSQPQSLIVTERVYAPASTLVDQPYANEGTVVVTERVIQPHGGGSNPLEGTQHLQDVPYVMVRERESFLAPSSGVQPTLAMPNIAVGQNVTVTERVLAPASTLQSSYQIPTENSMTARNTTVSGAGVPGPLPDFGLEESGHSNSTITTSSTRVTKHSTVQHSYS
UniProt Q92611: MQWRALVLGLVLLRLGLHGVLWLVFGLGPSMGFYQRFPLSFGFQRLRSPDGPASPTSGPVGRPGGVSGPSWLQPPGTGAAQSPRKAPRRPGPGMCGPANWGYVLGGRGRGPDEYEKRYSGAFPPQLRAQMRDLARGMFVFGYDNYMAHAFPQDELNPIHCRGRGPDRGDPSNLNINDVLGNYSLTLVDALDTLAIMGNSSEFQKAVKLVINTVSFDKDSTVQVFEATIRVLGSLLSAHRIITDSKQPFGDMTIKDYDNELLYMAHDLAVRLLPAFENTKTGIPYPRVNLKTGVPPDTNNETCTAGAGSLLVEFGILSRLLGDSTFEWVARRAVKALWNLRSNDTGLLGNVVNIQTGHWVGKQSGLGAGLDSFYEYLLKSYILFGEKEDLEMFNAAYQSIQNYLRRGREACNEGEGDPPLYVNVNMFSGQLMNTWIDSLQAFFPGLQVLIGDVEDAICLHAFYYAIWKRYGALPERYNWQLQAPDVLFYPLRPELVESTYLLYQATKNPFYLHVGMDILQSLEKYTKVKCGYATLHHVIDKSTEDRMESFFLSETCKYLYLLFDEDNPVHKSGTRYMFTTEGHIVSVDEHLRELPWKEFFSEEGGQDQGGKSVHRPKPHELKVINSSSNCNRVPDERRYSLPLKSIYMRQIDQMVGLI
UniProt Q96FN9: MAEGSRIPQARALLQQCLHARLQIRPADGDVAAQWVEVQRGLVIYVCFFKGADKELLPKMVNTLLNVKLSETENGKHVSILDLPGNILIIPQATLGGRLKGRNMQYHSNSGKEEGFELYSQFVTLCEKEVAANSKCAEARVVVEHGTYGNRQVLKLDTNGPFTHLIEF

Experiments:
Assay in all cases: log2 fold change, soluble protein after heating vs DMSO (PISA); higher = thermal stabilisation; K562 cells, 10 uM, 30 min; active = over 0.2 and 3.5 SD of the protein, either way, in both replicates (recomputed)
erlotinib = compound: C#Cc1cccc(Nc2ncnc3cc(OCCOC)c(OCCOC)cc23)c1 [erlotinib]
How it was run: (§1)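 For each measurement, 10 μM compound was applied for 30 min to K562 cells at 2×10^6 cells/mL. Aliquots were heated for 3 min across 48°C-58°C, pooled, and extracted in PBS with 0.5% NP-40 at 4°C; the supernatant after 21,000xg for 90 min was soluble protein. This was quantified by TMTpro 16plex LC-MS/MS with channel sums equalised, and thermal stability was reported relative to control samples from duplicates, on a log2 fold-change scale.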

[1] = compound: C/C(=N\NC(=O)C1=CC(=CC=C1)S(=O)(=O)N2CCOCC2)/C3=C(C=CC(=C3)Cl)O
How it was run: as §1

[2] = compound: C1=CC(=C(C=C1Cl)C2=NC3=NC=CN=C3C(=N2)NC4=CC=NC=C4)F
How it was run: as §1

[3] = compound: C1=CC(=CC=C1C2=NC3=C(N2)C=C(C=C3)C(=O)N)OC4=CC=C(C=C4)Cl
How it was run: as §1

[4] = compound: C1=CC2=C(C=CC(=C2)/C=C\3/C(=O)NC(=NCC4=CC=CS4)S3)N=C1
How it was run: as §1

[5] = compound: C1=CC2=NC=CN=C2C=C1/C=C/3\C(=O)NC(=O)S3
How it was run: as §1

[6] = compound: C1=CC=C(C=C1)C2=NC(=C(N2)C3=CC=NC=C3)C4=CC(=C(C=C4)Cl)O
How it was run: as §1

[7] = compound: C1=CC=C2C(=C1)C3=NNC4=CC=CC(=C43)C2=O
How it was run: as §1

[8] = compound: C1CCN(C1)C(=O)NC2=CC=CC(=C2)NC3=NC=C(C(=N3)NCCC4=CN=CN4)Br
How it was run: as §1

[9] = compound: C1CN(CCC1(CC2=CC=C(C=C2)Cl)N)C3=NC=NC4=C3C=CN4
How it was run: as §1

Measured: log2 fold change

DR1 (UniProt Q01658)
inactive: erlotinib 0.019 | [1] 0.026 | [2] 0.019 | [3] -0.009 | [4] 0 | [5] 0.058 | [6] 0.035 | [7] -0.005 | [8] -0.006 | [9] 0.012

DNAJC7 (UniProt Q99615)
inactive: erlotinib 0.02 | [1] 0.065 | [2] 0.061 | [3] -0.002 | [4] 0.014 | [5] 0.024 | [6] 0.013 | [7] 0.023 | [8] 0.005 | [9] -0.043

DOCK8 (UniProt Q8NF50)
inactive: erlotinib 0.259 | [1] 0.001 | [2] 0.182 | [3] 0.04 | [4] -0.092 | [5] -0.021 | [6] -0.046 | [7] 0.059 | [8] -0.076 | [9] -0.071

DUS4L (UniProt O95620)
inactive: erlotinib -0.009 | [1] 0.013 | [2] -0.084 | [3] 0.03 | [4] -0.034 | [5] 0.113 | [6] -0.024 | [7] -0.001 | [8] -0.074 | [9] 0.037

DRG2 (UniProt P55039)
inactive: erlotinib -0.005 | [1] 0.041 | [2] -0.004 | [3] 0.011 | [4] 0.055 | [5] 0.035 | [6] 0.003 | [7] 0.001 | [8] -0.012 | [9] 0.008

ECHDC1 (UniProt Q9NTX5)
inactive: erlotinib 0.022 | [1] 0.005 | [2] 0.022 | [3] -0.01 | [4] 0.009 | [5] 0.018 | [6] -0.03 | [7] -0.007 | [8] 0.021 | [9] 0.028

DNAJC3 (UniProt Q13217)
inactive: erlotinib -0.016 | [1] -0.001 | [2] -0.012 | [3] 0.014 | [4] -0.085 | [5] 0.023 | [6] -0.008 | [7] 0.032 | [8] 0.022 | [9] -0.039

DTD1 (UniProt Q8TEA8)
inactive: erlotinib -0.015 | [1] -0.035 | [2] 0.014 | [3] 0.015 | [4] 0.029 | [5] 0.053 | [6] -0.039 | [7] -0.019 | [8] 0.01 | [9] 0.066

DNAJC17 (UniProt Q9NVM6)
inactive: erlotinib 0.025 | [1] 0.014 | [2] 0.047 | [3] -0.018 | [4] 0.003 | [5] 0.038 | [6] -0.028 | [7] 0.054 | [8] -0.037 | [9] -0.008

DNAJC13 (UniProt O75165)
inactive: erlotinib 0.016 | [1] 0.104 | [2] -0.03 | [3] 0.027 | [4] -0.015 | [5] -0.035 | [6] -0.041 | [7] -0.018 | [8] 0.028 | [9] 0.003

DNAJC19 (UniProt Q96DA6)
inactive: erlotinib -0.009 | [1] 0.014 | [2] 0.055 | [3] 0.001 | [4] -0.005 | [5] 0.04 | [6] 0.052 | [7] -0.022 | [8] -0.012 | [9] 0.016

DOLPP1 (UniProt Q86YN1)
inactive: erlotinib 0.049 | [1] 0.039 | [3] 0.009 | [4] -0.165 | [5] 0.074 | [6] 0.17 | [7] 0.011 | [8] -0.088 | [9] 0.001

DNAJB4 (UniProt Q9UDY4)
inactive: erlotinib 0.009 | [1] 0.009 | [2] -0.044 | [3] 0.049 | [4] 0.004 | [5] 0.016 | [6] -0.049 | [7] -0.024 | [8] 0.018 | [9] 0.023

DOP1A (UniProt Q5JWR5)
inactive: erlotinib 0.177 | [2] 0.009 | [3] -0.152 | [5] 0.035

DNM2 isoform 4 (UniProt P50570)
inactive: erlotinib 0.042 | [2] 0.084 | [3] -0.128 | [5] 0.261 | [6] -0.008

DRAP1 (UniProt E9PQX9)
inactive: erlotinib 0.304 | [1] -0.398 | [3] -0.078 | [4] 0.101 | [7] -0.057 | [8] 0.004 | [9] 0.105

EAPP (UniProt Q56P03)
inactive: erlotinib -0.073 | [1] 0.077 | [3] -0.035 | [4] -0.123 | [6] 0.032 | [7] 0.046 | [8] 0 | [9] 0.106

Quoted at random: 3 entries already listed, in no set order.
DNAJC3 (UniProt Q13217)
inactive: erlotinib -0.016 | [1] -0.001 | [2] -0.012 | [3] 0.014 | [4] -0.085 | [5] 0.023 | [6] -0.008 | [7] 0.032 | [8] 0.022 | [9] -0.039

DTD1 (UniProt Q8TEA8)
inactive: erlotinib -0.015 | [1] -0.035 | [2] 0.014 | [3] 0.015 | [4] 0.029 | [5] 0.053 | [6] -0.039 | [7] -0.019 | [8] 0.01 | [9] 0.066

DNAJC17 (UniProt Q9NVM6)
inactive: erlotinib 0.025 | [1] 0.014 | [2] 0.047 | [3] -0.018 | [4] 0.003 | [5] 0.038 | [6] -0.028 | [7] 0.054 | [8] -0.037 | [9] -0.008

(list continues)

ECPAS (UniProt Q5VYK3)
inactive: erlotinib 0.058 | [1] 0.087 | [2] 0.001 | [3] -0.06 | [4] 0.042 | [5] 0.009 | [6] 0.048 | [7] -0.01 | [8] -0.028 | [9] -0.018

DNASE1L1 (UniProt P49184)
inactive: erlotinib 0.072 | [1] -0.097 | [3] 0.159 | [4] 0.126 | [7] -0.013

ECHDC3 (UniProt Q96DC8)
inactive: erlotinib 0.035 | [2] -0.154 | [3] -0.04 | [5] 0.014 | [6] 0.022 | [8] 0.119 | [9] -0.04

DNAJC16 (UniProt Q9Y2G8)
inactive: erlotinib -0.046 | [1] -0.071 | [2] -0.355 | [3] 0.119 | [4] -0.503 | [5] 0.233 | [7] -0.187 | [8] 0.119 | [9] 0.05

DSG2 (UniProt Q14126)
inactive: erlotinib -0.015 | [1] 0.021 | [2] 0.016 | [3] 0.047 | [4] 0.032 | [5] 0.009 | [6] 0.014 | [7] -0.058 | [8] -0.019 | [9] 0.044

DYNLT1 (UniProt P63172)
inactive: erlotinib -0.149 | [1] -0.028 | [3] 0.128 | [4] 0.036 | [5] -0.035 | [6] -0.01 | [7] -0.069 | [8] -0.043 | [9] 0.091

DNPEP (UniProt B9ZVU2)
inactive: erlotinib -0.109 | [1] 0.01 | [3] -0.171 | [4] -0.132 | [7] -0.063 | [8] 0.037 | [9] 0.139

EDEM1 (UniProt Q92611)
inactive: erlotinib 0.029 | [1] -0.113 | [2] 0.003 | [3] -0.042 | [4] 0.052 | [5] 0.036 | [6] 0.033 | [7] -0.002 | [8] 0 | [9] -0.012

DYNC1LI1 (UniProt Q9Y6G9)
inactive: erlotinib -0.047 | [1] 0.013 | [2] 0.009 | [3] 0.032 | [4] 0.02 | [5] 0.023 | [6] 0.026 | [7] 0.021 | [8] 0.042 | [9] -0.049

DOK3 (UniProt Q7L591)
inactive: erlotinib -0.001 | [1] 0.174 | [2] 0.112 | [3] -0.063 | [4] -0.052 | [5] -0.141 | [7] 0.041 | [8] -0.176 | [9] 0.11

DOK1 (UniProt Q99704)
inactive: erlotinib 0.177 | [1] -0.024 | [2] 0.28 | [3] 0.145 | [4] 0.051 | [5] -0.349 | [7] -0.034 | [8] 0.01 | [9] -0.033

DTD2 (UniProt Q96FN9)
inactive: erlotinib 0.068 | [1] 0.11 | [2] -0.075 | [3] -0.161 | [4] 0.066 | [7] -0.084 | [8] -0.03 | [9] 0.204

DOLK (UniProt Q9UPQ8)
inactive: erlotinib -0.122 | [1] 0.089 | [2] 0.114 | [3] -0.023 | [4] -0.278 | [5] 0.2 | [7] -0.385

DNPH1 (UniProt H0Y8X4)
inactive: erlotinib -0.02 | [1] -0.332 | [3] 0.016 | [4] 0.201 | [6] -0.341 | [7] 0.085 | [8] -0.087 | [9] 0.219

DPH3 (UniProt Q96FX2)
inactive: erlotinib -0.061 | [1] 0.076 | [2] -0.03 | [3] -0.012 | [4] 0.086 | [5] -0.051 | [7] -0.022 | [8] -0.244 | [9] -0.096
